Measurements from US20240209029A1, “ADIPONECTIN GLYCOPEPTIDES AND COMPOSITIONS AND METHODS OF USE THEREOF” (The University of Hong Kong, priority 2021, published 2024).

Legend:
MDA-MB-231 cells [1] = assay: Combination index (CI) analysis, chess-board assay with adiponectin; assay type: cell-based, human; settings: chessboard assay, co-incubation of peptide with adiponectin
Experimental: FIGS. 3A-3B are bar graphs showing the Emax (FIG. 3A) and EC50 (FIG. 3B) of adiponectin or peptides with no glycans (hAdn-WM), or mono-, di-, tri- and tetra-glycans. The glyACD and adiponectin elicit synergistic anti-proliferative activity in human MDA-MB-231 cells. After serum starvation for 24 hours, MDA-MB-231 cells were treated with different concentrations of hAdn-WM, glyACD, full-length human adiponectin, or their combinations. After incubation for another 24 hours, cells were harvested for manual counting. FIG. 3C is a graph showing the inhibition rate on MDA-MB-231 cells of the indicated peptides. […] The percentage inhibition on cell growth was calculated and indicated by different intensity of the blue color. […]
CI was used to determine the mode of drug interaction. […] Cells were treated with a concentration of adiponectin ranging from 0 to 2.5 μg/ml and of hAdn-WM or hAdn-WM656877101 ranging from 0 to 20 μg/ml for 24 hours and then cell numbers were counted. CI was calculated by the formula of CI=CA,x/Cx,A+CB,x/Cx,B, where CA,x and CB,x are the concentration of drug A and B used in combination to achieve x % drug effect (inhibition rate); Cx,A and Cx,B are the concentrations for single agents to achieve the same effect. […]

MDA-MB-231 cells [2] = assay: Cancer cell proliferative assay (anti-proliferative activity, manual cell counting); assay type: cell-based, human
Experimental: FIGS. 3A-3B are bar graphs showing the Emax (FIG. 3A) and EC50 (FIG. 3B) of adiponectin or peptides with no glycans (hAdn-WM), or mono-, di-, tri- and tetra-glycans. The glyACD and adiponectin elicit synergistic anti-proliferative activity in human MDA-MB-231 cells. After serum starvation for 24 hours, MDA-MB-231 cells were treated with different concentrations of hAdn-WM, glyACD, full-length human adiponectin, or their combinations. After incubation for another 24 hours, cells were harvested for manual counting. FIG. 3C is a graph showing the inhibition rate on MDA-MB-231 cells of the indicated peptides. MDA-MB-231 cells were treated with different concentrations of adiponectin in the absence or presence of low (2.5 μg/ml) or high (20 μg/ml) doses of hAdn-WM or hAdn-WM656877101. FIG. 3D is a heatmap showing the percentage inhibition on cell growth. MDA-MB-231 cells were treated with 0, 0.22, 0.33, 0.49, 0.74, 1.11, 1.67, 2.5 μg/ml adiponectin in combination with 0, 0.3125, 0.625, 1.25, 2.5, 5, 10, 20 μg/ml hAdn-WM or hAdn-WM656877101. The percentage inhibition on cell growth was calculated and indicated by different intensity of the blue color. Data are presented as mean±SEM (n=6). *, P<0.05 vs full-length human adiponectin; ♦, P<0.05 vs peptide with no glycans (hAdn-WM); ▴, P<0.05 vs peptide with tetra-glycans (hAdn-WM656877101).
MDA-MB-231 cells were cultured in DMEM supplemented with 10% FBS and 1% penicillin-streptomycin-fungisone at 37° C. and under 5% CO2 95% humidified air. After harvesting, cells were seeded at a density of 3000 cells per well in 96-well plates and then cultured for 24 hours. After fasting in DMEM with 0.5% FBS for 24 hours, cells were subsequently stimulated with 2.5% FBS in the presence of peptides, human adiponectin or other drugs. The viable cell numbers at 24 hours at different doses were manually counted by mixing with trypan blue dye for analysis. The maximum inhibition rate (Emax) and half maximal effective concentration (EC50) were used to evaluate the anti-tumor activity of peptides and adiponectin.
Human breast cancer MDA-MB-231 cells were used to evaluate the anti-proliferative activities of adiponectin, and the 15 glyACD and non-glycosylated hAdn-WM peptides. […] The Emax of glyACD ranged from ˜26.0% to ˜53%, which was lower than that of full-length adiponectin but higher than hAdn-WM.

[3] = 24 hours incubation, viable cells manually counted

Sequence: WMAGIPGHPGHNGAPGRDGRDGTPGEKGEKGDPGLIGPKGDIGETGVPGAEGPRGFPGIQGRKGEPGEG [hAdn-WM]
- Combination index (MDA-MB-231 cells [1]; 24 hours): > 1
- Effect on the anti-proliferative activity of adiponectin (MDA-MB-231 cells [1]; FIG. 3D): reduced the anti-proliferative activity of adiponectin
- Higher EC50 compared to full-length human adiponectin (MDA-MB-231 cells [2]): ~19 fold
- Reduction of Emax compared to full-length human adiponectin (MDA-MB-231 cells [2]): three-fold
- EC50 (MDA-MB-231 cells [2]; [3]): 6.27 ± 0.62 µg/mL
- Emax (%) maximum inhibition rate (MDA-MB-231 cells [2]; [3]): 23.0 ± 4.23%
- Emax of human adiponectin in the presence of peptide (MDA-MB-231 cells [2]; in the presence of 20 μg/ml peptide, FIG. 3C): 54.2±2.95%
